Measurements published in PubChem BioAssay AID192 (DTP/NCI, 2004).
The list does not hold the whole screen: it gathers tests that were run many times, whatever their T/C, doses with no T/C, and many T/C values between a quarter and a half above the control. Further doses and runs are listed elsewhere. T/C gives the treated animals as a percentage of the vehicle group. Some entries give survivors of the animals treated and no T/C: the source files T/C as zero there, which appears to mark a toxic dose or a test without result, not a measured value. Some doses without a T/C left all or most animals alive at the check, yet need not have been tolerated: the source hardly ever lists a survival T/C far under the control, and the zero likely stands for such cases as well. Counts of survivors are from the toxicity check (mostly the fifth day) where no day follows; animals may have died later. Schedules are NCI's codes, read here as Q, the interval in days (D) or hours (H), X, the number of doses. Some doses were run more than once; their values stand side by side, smallest first. Where survival is the endpoint, the PubChem record calls one and a half times the control and up active, and a quarter to a half above the control has no call in these data; cut-offs in other NCI protocols can differ.

Tested on: BDF1 mice, B16 melanoma ip, median survival T/C
Experiment: NCI In Vivo Anticancer Drug Screen. Data for tumor model B16 Melanoma (intraperitoneal) in B6D2F1 (BDF1) mice
Conditions: T/C endpoint: median survival time, higher T/C = longer survival
In short: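 Values are ratios of treated (T) to vehicle-control (C) measurements of survival or tumor size in tumor-bearing mice.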

[1] = dose: 200.0 mg/kg/injection, schedule: Q01DX009 (ip), vehicle: Klucel (hydroxypropylcellulose) (HPC)
[2] = dose: 25.0 mg/kg/injection, schedule: Q01DX009 (ip), vehicle: Klucel (hydroxypropylcellulose) (HPC)
[3] = dose: 50.0 mg/kg/injection, schedule: Q01DX009 (ip), vehicle: Klucel (hydroxypropylcellulose) (HPC)
[4] = dose: 100.0 mg/kg/injection, schedule: Q01DX009 (ip), vehicle: Klucel (hydroxypropylcellulose) (HPC)
[5] = dose: 100.0 mg/kg/injection, schedule: Q01DX009 (ip), vehicle: saline
[6] = dose: 200.0 mg/kg/injection, schedule: Q01DX009 (ip), vehicle: saline
[7] = dose: 400.0 mg/kg/injection, schedule: Q01DX009 (ip), vehicle: saline

Compound: CCCCCCCCCCCCCCCC(=O)NNC(C)C
- survivor count [1]: 10 of 10

Compound: O=C1N(CC2CO2)CCN1CC1CO1 (stereo not drawn)
- T/C (dose: 50.0 mg/kg/injection, schedule: Q01DX009 (ip), vehicle: suspension in saline): 146 % of control
- survivor count (dose: 200.0 mg/kg/injection, schedule: Q01DX009 (ip), vehicle: suspension in saline): 9 of 10

Compound: O=c1cccccc1O.O=c1cccccc1O.[Cu]
- survivor count (dose: 1.56 mg/kg/injection, schedule: Q01DX009 (ip), vehicle: Klucel (hydroxypropylcellulose) (HPC)): 10 of 10 and 6 of 6
- survivor count (dose: 3.12 mg/kg/injection, schedule: Q01DX009 (ip), vehicle: Klucel (hydroxypropylcellulose) (HPC)): 10 of 10
- survivor count (dose: 6.25 mg/kg/injection, schedule: Q01DX009 (ip), vehicle: Klucel (hydroxypropylcellulose) (HPC)): 10 of 10
- survivor count (dose: 12.5 mg/kg/injection, schedule: Q01DX009 (ip), vehicle: Klucel (hydroxypropylcellulose) (HPC)): 9 of 10
- survivor count [2]: 0 of 10
- survivor count [3]: 0 of 10
- survivor count [4]: 0 of 10
- survivor count [1]: 0 of 10
- survivor count (dose: 400.0 mg/kg/injection, schedule: Q01DX009 (ip), vehicle: Klucel (hydroxypropylcellulose) (HPC)): 0 of 10

Compound: CNCCCN1c2ccccc2CCc2ccccc21
- survivor count [5]: 1 of 10
- survivor count [6]: 0 of 10
- survivor count [7]: 0 of 10

Compound: CCCCCCCCCCCC(O)CCCC (stereo not drawn)
- survivor count [2]: 10 of 10
- survivor count [3]: 10 of 10
- survivor count [4]: 10 of 10
- survivor count [1]: 10 of 10

Compound: COc1cc(C=Nc2ccc(-n3ccnc3C)cc2)ccc1N(CCCl)CCCl
- T/C (dose: 5.0 mg/kg/injection, schedule: Q01DX009 (ip), vehicle: Klucel (hydroxypropylcellulose) (HPC)): 131 % of control
- T/C (dose: 10.0 mg/kg/injection, schedule: Q01DX009 (ip), vehicle: Klucel (hydroxypropylcellulose) (HPC)): 132 % of control
- survivor count (dose: 20.0 mg/kg/injection, schedule: Q01DX009 (ip), vehicle: Klucel (hydroxypropylcellulose) (HPC)): 10 of 10

Compound: CC(N)Cc1ccc2c(c1)OCO2 (stereo not drawn)
- survivor count [5]: 4 of 10
- survivor count [6]: 4 of 10
- survivor count [7]: 0 of 10

Compound: CCCC(=O)O.CCCC(=O)O.CCCC(=O)O.CCCC(=O)O.[Rh].[Rh]
- survivor count (dose: 130.0 micrograms/kg/injection, schedule: Q08HX018 (ip), vehicle: saline + alcohol): 9 of 10
- survivor count (dose: 360.0 micrograms/kg/injection, schedule: Q08HX018 (ip), vehicle: saline + alcohol): 10 of 10
- survivor count (dose: 432.0 micrograms/kg/injection, schedule: Q01DX009 (ip), vehicle: saline + alcohol): 10 of 10
- survivor count (dose: 600.0 micrograms/kg/injection, schedule: Q08HX018 (ip), vehicle: saline + alcohol): 9 of 10
- survivor count (dose: 720.0 micrograms/kg/injection, schedule: Q01DX009 (ip), vehicle: saline + alcohol): 10 of 10
- survivor count (dose: 1000.0 micrograms/kg/injection, schedule: Q08HX018 (ip), vehicle: saline + alcohol): 3 of 10
- survivor count (dose: 1200.0 micrograms/kg/injection, schedule: Q01DX009 (ip), vehicle: saline + alcohol): 9 of 10
- survivor count (dose: 2000.0 micrograms/kg/injection, schedule: Q01DX009 (ip), vehicle: saline + alcohol): 1 of 10
